Test results published in patent US10899785B2, “Aminoglycoside derivatives and uses thereof in treating genetic disorders” (Eloxx Pharmaceuticals Ltd., priority 2015, dated 2021).
Some of these results come from one statement about several compounds together.

Test system: Rett syndrome R168X, R270X and R294X nonsense mutations
Assay: Cell-free nonsense mutation suppression assay, firefly/renilla
Assay type: biochemical, rabbit
Settings: 5 μM, all three Rett syndrome mutation models, FIGS. 8A-C
Experimental: The plasmids were transcribed in vitro and translated using rabbit reticulocytes (TNT mix) and then tested for the expression levels of the firefly and renilla luciferases.
WT plasmids expressed both firefly and renilla luciferases while mutant plasmids expressed only the renilla luciferase due to the stop codon found in the inserted sequence. The readthrough assays were conducted for the tested compounds and the controls by adding the compounds to the in vitro transcription/translation reaction mixture. In case the compounds exerted suppression of the premature nonsense/stop codon mutation, the firefly luciferase was expressed and a fold-change in its expression was observed.
FIGS. 8A-C present the results of Rett syndrome R168X (FIG. 8A), R270X (FIG. 8B) and R294X (FIG. 8C) nonsense mutations suppression cell-free assays conducted for six exemplary compounds according to embodiments of the present invention, NB144, NB145, NB146, NB150, NB151 and NB152, at a concentration of 5 μM. As shown therein, when compared with the control (non-treated cell extracts), the wild type cell extracts are unaffected (approx. 100%); however, in all three Rett syndrome mutation models there is a significant impact of the different treatments on the readthrough activity (>>>100%).

Question: `CC(C)CN[C@@H]1CC(N)[C@@H](O[C@H]2OC([C@@H](C)O)[C@@H](O)C(O)C2N)C(O)C1O` (stereo in doubt) [NB144] was tested. Which “readthrough activity, firefly/renilla ratio as fraction of control (100%)” value did it give?
Answer: > 100%

Question: With `C[C@@H](O)C1O[C@H](O[C@@H]2C(N)C[C@@H](NCc3ccccc3)C(O)C2O)C(N)C(O)[C@@H]1O` (stereo in doubt) [NB145] as the compound, how does the “readthrough activity, firefly/renilla ratio as fraction of control (100%)” value read?
Answer: > 100%

Question: How did the “readthrough activity, firefly/renilla ratio as fraction of control (100%)” value turn out when `CCCN[C@@H]1CC(N)[C@@H](O[C@H]2OC([C@@H](C)O)[C@@H](O)C(O)C2N)C(O)C1O` (stereo in doubt) [NB146] was run?
Answer: > 100%

Question: With `C[C@@H](O)C1O[C@H](O[C@@H]2C(N)C[C@@H](NC(=N)N)C(O)[C@H]2O)C(N)C(O)[C@@H]1O` (stereo in doubt) [NB150] as the compound, how does the “readthrough activity, firefly/renilla ratio as fraction of control (100%)” value read?
Answer: > 100%

Question: For `C[C@@H](O)C1O[C@H](O[C@@H]2C(N)C[C@@H](N)C(O)C2O[C@@H]2O[C@H](CNC(=N)N)C(O)C2O)C(N)C(O)[C@@H]1O` (stereo in doubt) [NB151], which “readthrough activity, firefly/renilla ratio as fraction of control (100%)” value is on record?
Answer: > 100%

Question: Which “readthrough activity, firefly/renilla ratio as fraction of control (100%)” value does the source give for `C[C@@H](O)C1O[C@H](O[C@@H]2C(N)C[C@@H](NC(=O)C(O)CCN)C(O)C2O[C@@H]2O[C@H](CNC(=N)N)C(O)C2O)C(N)C(O)[C@@H]1O` (stereo in doubt) [NB152] here?
Answer: > 100%
